Results on one substance are retold here after patent US7803554B2, “Detection of binding factors with fluorescence polarization” (priority 2000, dated 2010).

This data set deals with d(pT)18. Nature of the data set: CE/LIFP of FITC-SSB protein probe with d(pT)18 in running buffer. The class given is binding.

“FITC-SSB: single-stranded DNA binding protein labeled with FITC”: the “increase in fluorescence anisotropy (DA) upon binding to the oligonucleotide” value is more than 0.02. In addition, the fluorescence anisotropy (free probe, 25 mM disodium tetraborate pH 9.1) is 0.23. Under “pH 9.1”, the electrophoretic mobility is recorded as 1.07×10^−4 cm^2 V^−1 s^−1 and the fluorescence anisotropy is listed as 0.23.
